Measurements as given in the supplement of paper PMC7666118.
Some of the results follow.

The chains behind the UniProt entries cited, without tags or fusion partners. Where a name states a change or a piece, a line headed by the entry shows the natural chain unless it says otherwise.
UniProt Q9H061: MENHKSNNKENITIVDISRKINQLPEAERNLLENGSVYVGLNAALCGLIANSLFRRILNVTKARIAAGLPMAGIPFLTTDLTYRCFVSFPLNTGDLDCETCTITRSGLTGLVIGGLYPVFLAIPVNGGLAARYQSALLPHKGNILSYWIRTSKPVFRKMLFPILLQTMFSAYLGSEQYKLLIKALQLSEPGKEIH
UniProt Q13049: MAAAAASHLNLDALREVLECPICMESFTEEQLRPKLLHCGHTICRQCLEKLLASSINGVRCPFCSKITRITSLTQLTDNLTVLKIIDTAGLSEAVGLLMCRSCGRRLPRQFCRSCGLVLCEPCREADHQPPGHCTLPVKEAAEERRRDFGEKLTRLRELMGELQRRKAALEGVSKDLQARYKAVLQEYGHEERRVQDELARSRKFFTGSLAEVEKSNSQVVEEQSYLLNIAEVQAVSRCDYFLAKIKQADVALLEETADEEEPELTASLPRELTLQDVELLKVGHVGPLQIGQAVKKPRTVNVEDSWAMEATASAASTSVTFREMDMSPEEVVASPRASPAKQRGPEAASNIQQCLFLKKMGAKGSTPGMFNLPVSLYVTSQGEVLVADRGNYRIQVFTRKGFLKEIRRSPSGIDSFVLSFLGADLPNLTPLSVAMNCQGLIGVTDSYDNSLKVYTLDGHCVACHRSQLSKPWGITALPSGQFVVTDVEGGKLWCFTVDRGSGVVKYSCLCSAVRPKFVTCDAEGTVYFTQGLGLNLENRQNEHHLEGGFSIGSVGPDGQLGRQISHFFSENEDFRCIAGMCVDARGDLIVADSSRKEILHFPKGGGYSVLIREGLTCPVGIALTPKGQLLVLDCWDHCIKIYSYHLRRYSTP
UniProt Q9NYL9: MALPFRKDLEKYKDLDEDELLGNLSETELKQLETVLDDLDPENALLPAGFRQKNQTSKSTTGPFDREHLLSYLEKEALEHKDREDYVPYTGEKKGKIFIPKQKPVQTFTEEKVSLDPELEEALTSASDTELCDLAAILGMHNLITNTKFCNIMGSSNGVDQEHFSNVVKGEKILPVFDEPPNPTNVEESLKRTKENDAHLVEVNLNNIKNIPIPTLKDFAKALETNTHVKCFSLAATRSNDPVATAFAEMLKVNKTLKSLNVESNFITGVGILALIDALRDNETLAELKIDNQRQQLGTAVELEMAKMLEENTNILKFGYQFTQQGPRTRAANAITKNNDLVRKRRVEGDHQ
UniProt Q9UNS1: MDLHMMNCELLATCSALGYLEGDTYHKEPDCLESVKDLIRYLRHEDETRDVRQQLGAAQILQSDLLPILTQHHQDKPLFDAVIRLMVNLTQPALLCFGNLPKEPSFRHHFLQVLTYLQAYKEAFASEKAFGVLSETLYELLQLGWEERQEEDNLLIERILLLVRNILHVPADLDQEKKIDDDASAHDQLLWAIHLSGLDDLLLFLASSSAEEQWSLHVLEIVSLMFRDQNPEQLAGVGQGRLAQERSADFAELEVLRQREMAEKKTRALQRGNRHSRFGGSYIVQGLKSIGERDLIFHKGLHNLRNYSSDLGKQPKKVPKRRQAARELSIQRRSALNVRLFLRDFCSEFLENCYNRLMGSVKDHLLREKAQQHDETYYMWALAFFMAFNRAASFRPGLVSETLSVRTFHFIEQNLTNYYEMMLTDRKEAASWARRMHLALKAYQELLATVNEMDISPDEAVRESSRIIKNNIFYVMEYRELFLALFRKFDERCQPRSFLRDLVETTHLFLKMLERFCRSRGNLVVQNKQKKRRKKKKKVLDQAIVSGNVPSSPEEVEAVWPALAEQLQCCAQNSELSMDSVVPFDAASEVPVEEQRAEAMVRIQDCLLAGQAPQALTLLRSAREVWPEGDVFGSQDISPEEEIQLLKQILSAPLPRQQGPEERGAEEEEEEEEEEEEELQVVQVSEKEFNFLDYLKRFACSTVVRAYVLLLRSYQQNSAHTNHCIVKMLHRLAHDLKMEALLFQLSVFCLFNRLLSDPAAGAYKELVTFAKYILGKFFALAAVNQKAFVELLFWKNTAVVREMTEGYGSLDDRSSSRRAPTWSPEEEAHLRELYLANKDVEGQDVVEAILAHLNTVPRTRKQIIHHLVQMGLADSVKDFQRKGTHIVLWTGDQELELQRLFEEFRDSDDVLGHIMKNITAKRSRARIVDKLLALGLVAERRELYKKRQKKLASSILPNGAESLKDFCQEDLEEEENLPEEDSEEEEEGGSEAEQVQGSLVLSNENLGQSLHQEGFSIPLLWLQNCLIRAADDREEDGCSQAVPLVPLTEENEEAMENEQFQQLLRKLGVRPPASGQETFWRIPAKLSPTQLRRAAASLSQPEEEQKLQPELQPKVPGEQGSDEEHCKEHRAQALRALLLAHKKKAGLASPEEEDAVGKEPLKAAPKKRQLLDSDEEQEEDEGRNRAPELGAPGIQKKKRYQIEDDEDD
UniProt Q9P0T7: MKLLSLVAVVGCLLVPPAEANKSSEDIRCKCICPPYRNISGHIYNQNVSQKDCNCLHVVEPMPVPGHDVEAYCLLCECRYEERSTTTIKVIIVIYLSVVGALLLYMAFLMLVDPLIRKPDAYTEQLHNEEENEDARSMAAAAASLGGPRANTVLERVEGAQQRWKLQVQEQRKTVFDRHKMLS
UniProt O95900: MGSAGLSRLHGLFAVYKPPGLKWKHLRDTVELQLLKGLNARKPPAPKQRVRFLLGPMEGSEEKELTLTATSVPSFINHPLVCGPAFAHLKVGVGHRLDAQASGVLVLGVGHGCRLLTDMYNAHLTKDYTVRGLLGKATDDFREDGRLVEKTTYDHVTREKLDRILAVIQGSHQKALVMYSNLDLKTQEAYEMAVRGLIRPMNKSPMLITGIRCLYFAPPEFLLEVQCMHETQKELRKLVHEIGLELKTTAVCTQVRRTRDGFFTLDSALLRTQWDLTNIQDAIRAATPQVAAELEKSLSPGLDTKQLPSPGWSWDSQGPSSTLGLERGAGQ
UniProt Q9Y296, whole entry: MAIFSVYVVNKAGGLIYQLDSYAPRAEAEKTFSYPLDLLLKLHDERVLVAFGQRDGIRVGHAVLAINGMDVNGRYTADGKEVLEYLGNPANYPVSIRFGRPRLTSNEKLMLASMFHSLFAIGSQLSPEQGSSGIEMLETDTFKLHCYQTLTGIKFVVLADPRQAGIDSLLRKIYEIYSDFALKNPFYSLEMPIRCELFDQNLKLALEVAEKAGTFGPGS
UniProt O14545: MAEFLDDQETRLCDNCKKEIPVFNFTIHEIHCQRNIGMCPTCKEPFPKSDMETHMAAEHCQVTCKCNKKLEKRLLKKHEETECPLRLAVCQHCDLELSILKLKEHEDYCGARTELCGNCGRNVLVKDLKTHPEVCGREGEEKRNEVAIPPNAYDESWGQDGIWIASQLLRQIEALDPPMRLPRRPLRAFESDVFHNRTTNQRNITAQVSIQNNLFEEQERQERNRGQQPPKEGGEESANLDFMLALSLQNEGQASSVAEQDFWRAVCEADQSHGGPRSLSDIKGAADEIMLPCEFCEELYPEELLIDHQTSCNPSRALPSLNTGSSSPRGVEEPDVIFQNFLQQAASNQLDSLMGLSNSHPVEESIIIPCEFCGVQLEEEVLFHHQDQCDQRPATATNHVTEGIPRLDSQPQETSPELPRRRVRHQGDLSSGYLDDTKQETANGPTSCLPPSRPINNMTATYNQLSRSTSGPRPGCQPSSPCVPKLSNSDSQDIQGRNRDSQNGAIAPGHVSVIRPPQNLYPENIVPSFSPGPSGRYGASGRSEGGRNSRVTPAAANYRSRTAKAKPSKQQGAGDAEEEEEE
UniProt P43897: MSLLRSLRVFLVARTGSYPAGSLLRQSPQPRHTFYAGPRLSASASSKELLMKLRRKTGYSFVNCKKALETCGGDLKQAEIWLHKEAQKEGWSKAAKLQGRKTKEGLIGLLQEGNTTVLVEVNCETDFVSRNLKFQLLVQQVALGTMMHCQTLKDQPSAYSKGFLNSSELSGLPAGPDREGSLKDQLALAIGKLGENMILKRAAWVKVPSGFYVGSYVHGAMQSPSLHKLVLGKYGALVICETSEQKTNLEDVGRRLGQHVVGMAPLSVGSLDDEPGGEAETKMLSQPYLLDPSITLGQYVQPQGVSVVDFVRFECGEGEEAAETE
UniProt O14787: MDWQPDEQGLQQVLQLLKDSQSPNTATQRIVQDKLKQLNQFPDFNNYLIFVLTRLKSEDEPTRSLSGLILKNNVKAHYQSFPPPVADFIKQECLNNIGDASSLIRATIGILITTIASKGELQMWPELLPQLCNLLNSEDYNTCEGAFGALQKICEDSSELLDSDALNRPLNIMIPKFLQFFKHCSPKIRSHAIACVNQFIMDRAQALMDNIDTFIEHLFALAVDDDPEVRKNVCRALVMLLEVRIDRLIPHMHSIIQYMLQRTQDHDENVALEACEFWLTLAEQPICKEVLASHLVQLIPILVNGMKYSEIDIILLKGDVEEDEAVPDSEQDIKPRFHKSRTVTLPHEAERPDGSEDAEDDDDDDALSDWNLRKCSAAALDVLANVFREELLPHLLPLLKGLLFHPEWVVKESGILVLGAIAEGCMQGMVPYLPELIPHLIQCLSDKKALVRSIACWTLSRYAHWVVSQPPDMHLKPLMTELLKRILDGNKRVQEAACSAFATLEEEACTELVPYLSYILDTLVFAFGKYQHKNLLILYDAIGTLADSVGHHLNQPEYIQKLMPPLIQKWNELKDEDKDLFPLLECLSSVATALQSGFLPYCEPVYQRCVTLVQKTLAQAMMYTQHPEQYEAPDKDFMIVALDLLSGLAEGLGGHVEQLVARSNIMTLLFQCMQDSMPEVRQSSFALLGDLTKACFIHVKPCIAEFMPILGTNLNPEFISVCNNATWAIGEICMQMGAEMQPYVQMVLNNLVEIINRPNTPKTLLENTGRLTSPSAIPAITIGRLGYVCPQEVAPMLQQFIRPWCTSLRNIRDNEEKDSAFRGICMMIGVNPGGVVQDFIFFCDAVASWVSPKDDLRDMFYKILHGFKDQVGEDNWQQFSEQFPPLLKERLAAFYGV
UniProt Q6ZMU5: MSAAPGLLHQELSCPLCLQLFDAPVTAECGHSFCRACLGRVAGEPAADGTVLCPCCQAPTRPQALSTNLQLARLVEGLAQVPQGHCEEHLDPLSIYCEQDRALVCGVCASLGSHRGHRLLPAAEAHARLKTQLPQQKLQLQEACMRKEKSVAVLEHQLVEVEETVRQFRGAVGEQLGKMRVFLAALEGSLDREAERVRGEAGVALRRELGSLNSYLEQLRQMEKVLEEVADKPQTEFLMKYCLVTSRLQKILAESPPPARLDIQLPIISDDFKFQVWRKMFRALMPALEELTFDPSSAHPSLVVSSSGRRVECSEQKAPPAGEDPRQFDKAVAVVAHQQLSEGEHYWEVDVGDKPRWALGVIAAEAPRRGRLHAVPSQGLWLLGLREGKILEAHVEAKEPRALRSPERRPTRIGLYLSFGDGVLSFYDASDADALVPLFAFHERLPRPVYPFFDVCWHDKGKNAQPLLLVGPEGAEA
UniProt Q9UKI8: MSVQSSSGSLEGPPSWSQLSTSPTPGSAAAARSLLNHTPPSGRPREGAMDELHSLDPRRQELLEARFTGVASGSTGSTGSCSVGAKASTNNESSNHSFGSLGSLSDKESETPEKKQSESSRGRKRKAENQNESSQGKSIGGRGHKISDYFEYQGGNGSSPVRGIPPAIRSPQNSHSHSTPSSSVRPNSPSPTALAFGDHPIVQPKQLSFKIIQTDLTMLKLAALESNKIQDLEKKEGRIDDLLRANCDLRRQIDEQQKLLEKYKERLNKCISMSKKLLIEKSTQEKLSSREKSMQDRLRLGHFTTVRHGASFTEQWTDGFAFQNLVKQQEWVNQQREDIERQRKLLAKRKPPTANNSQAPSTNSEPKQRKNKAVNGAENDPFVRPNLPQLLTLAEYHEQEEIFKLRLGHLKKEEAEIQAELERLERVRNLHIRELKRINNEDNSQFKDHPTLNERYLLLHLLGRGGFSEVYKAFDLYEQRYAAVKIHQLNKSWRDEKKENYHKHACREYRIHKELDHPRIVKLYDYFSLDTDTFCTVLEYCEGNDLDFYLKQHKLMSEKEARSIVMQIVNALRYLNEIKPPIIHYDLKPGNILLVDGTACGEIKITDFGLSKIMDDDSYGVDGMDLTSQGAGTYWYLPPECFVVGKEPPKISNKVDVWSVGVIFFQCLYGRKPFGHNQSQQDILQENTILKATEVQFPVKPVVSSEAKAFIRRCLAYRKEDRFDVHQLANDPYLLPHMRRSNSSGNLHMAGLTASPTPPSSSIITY
UniProt Q9H4I3: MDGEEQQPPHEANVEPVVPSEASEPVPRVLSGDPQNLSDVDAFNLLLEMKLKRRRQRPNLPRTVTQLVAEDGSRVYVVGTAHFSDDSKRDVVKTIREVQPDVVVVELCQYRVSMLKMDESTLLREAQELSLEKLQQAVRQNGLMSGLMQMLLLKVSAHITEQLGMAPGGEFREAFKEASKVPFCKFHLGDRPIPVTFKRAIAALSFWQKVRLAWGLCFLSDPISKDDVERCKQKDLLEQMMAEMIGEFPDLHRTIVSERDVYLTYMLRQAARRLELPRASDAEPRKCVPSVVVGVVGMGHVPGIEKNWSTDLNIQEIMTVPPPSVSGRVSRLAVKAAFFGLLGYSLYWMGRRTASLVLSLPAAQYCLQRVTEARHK

What follows are targets tested with COc1ccc(Cn2ccc3cc(C)c(C(=O)NO)cc32)cc1 (assay: dose-dependent thermal stabilisation call (2D-TPP, DLPTP, 10% FDR) (binary (1 = stabilised)); higher = stabilised by the compound). Conditions: system: HL-60 intact cells; concentration range 0.04-10 µM.
Description: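 2D thermal proteome profiling in intact HL-60 cells treated with BRD-3811 (0, 0.04, 0.29, 2, 10 uM) for 90 min at 37 C, then heated 3 min at one of 12 temperatures (42-63.9 C). Soluble protein was quantified by TMT10 MS. The value is the DLPTP call of the paper: dose-dependent thermal stabilisation over all temperatures at 10% FDR (F-test of a dose-response against a flat model); one experiment, one call per tested protein.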

Target | dose-dependent thermal stabilisation call
TMSB10 (UniProt P63313) | inactive: 0
TMEM126A (UniProt Q9H061) | inactive: 0
TOR3A (UniProt Q9H497) | inactive: 0
TRMT61B (UniProt Q9BVS5) | inactive: 0
TMCO1 (UniProt Q9UM00) | inactive: 0
TRIM32 (UniProt Q13049) | inactive: 0
TMOD3 (UniProt Q9NYL9) | inactive: 0
TRMT2A (UniProt Q8IZ69) | inactive: 0
TIMELESS (UniProt Q9UNS1) | inactive: 0
TMED5 (UniProt Q9Y3A6) | inactive: 0
TMEM9 (UniProt Q9P0T7) | inactive: 0
TMEM62 (UniProt Q0P6H9) | inactive: 0
TRUB2 (UniProt O95900) | inactive: 0
TSR1 (UniProt Q2NL82) | inactive: 0
TIMM50 (UniProt Q3ZCQ8) | inactive: 0
TRAPPC4 (UniProt Q9Y296) | inactive: 0
TIMP1 (UniProt P01033) | inactive: 0
TOMM34 (UniProt Q15785) | inactive: 0

Target | dose-dependent thermal stabilisation call
THTPA (UniProt Q9BU02) | inactive: 0
TSSC4 (UniProt Q9Y5U2) | inactive: 0
TRAFD1 (UniProt O14545) | inactive: 0
TSFM (UniProt P43897) | inactive: 0
TLE3 (UniProt Q04726) | inactive: 0
TNRC6A (UniProt Q8NDV7) | inactive: 0
TMLHE (UniProt Q9NVH6) | inactive: 0
TNPO2 (UniProt O14787) | inactive: 0
TOE1 (UniProt Q96GM8) | inactive: 0
TMED2 (UniProt Q15363) | inactive: 0
TRIM72 (UniProt Q6ZMU5) | inactive: 0
TLK1 (UniProt Q9UKI8) | inactive: 0
TMCO3 (UniProt Q6UWJ1) | inactive: 0
TIMM9 (UniProt Q9Y5J7) | inactive: 0
TOR2A | inactive: 0
TRABD (UniProt Q9H4I3) | inactive: 0
TLCD1 (UniProt Q96CP7) | inactive: 0
TRAF6 (UniProt Q9Y4K3) | inactive: 0

Pulled one by one from the list above (2):
Target | dose-dependent thermal stabilisation call
TRABD (UniProt Q9H4I3) | inactive: 0
TRAFD1 (UniProt O14545) | inactive: 0
